These are yes or no findings as the source states them, for the method shown. Binding seen in cells or lysates may run through a third protein. Some results given as binding are weak or reduced against the parent protein; the word gives no strength.
Biological target: T1, Cav3.2-GFP tagged calcium channel (human, UniProt O95180 1-2353)
T1 construct: also called Cav3.2 T-type calcium channel; source: tsA-201 cells, transfected (lipofectamine 2000), in lysate; not shown: GFP, C-terminal, kept
Experiment: co-IP; tsA-201 cells co-expressing Cav3.2-GFP and mCherry-USP5 (WT or K113R); lysed in modified RIPA buffer (50 mM Tris, 100 mM NaCl, 0.2% Triton X-100, 0.2% NP-40, 10 mM EDTA, pH 7.5); Cav3.2-GFP precipitated with anti-GFP antibody and Protein G/A beads overnight at 4 °C; blot probed with mCherry antibody; densitometry

The chains behind the UniProt entries cited, without tags or fusion partners.
UniProt O95180: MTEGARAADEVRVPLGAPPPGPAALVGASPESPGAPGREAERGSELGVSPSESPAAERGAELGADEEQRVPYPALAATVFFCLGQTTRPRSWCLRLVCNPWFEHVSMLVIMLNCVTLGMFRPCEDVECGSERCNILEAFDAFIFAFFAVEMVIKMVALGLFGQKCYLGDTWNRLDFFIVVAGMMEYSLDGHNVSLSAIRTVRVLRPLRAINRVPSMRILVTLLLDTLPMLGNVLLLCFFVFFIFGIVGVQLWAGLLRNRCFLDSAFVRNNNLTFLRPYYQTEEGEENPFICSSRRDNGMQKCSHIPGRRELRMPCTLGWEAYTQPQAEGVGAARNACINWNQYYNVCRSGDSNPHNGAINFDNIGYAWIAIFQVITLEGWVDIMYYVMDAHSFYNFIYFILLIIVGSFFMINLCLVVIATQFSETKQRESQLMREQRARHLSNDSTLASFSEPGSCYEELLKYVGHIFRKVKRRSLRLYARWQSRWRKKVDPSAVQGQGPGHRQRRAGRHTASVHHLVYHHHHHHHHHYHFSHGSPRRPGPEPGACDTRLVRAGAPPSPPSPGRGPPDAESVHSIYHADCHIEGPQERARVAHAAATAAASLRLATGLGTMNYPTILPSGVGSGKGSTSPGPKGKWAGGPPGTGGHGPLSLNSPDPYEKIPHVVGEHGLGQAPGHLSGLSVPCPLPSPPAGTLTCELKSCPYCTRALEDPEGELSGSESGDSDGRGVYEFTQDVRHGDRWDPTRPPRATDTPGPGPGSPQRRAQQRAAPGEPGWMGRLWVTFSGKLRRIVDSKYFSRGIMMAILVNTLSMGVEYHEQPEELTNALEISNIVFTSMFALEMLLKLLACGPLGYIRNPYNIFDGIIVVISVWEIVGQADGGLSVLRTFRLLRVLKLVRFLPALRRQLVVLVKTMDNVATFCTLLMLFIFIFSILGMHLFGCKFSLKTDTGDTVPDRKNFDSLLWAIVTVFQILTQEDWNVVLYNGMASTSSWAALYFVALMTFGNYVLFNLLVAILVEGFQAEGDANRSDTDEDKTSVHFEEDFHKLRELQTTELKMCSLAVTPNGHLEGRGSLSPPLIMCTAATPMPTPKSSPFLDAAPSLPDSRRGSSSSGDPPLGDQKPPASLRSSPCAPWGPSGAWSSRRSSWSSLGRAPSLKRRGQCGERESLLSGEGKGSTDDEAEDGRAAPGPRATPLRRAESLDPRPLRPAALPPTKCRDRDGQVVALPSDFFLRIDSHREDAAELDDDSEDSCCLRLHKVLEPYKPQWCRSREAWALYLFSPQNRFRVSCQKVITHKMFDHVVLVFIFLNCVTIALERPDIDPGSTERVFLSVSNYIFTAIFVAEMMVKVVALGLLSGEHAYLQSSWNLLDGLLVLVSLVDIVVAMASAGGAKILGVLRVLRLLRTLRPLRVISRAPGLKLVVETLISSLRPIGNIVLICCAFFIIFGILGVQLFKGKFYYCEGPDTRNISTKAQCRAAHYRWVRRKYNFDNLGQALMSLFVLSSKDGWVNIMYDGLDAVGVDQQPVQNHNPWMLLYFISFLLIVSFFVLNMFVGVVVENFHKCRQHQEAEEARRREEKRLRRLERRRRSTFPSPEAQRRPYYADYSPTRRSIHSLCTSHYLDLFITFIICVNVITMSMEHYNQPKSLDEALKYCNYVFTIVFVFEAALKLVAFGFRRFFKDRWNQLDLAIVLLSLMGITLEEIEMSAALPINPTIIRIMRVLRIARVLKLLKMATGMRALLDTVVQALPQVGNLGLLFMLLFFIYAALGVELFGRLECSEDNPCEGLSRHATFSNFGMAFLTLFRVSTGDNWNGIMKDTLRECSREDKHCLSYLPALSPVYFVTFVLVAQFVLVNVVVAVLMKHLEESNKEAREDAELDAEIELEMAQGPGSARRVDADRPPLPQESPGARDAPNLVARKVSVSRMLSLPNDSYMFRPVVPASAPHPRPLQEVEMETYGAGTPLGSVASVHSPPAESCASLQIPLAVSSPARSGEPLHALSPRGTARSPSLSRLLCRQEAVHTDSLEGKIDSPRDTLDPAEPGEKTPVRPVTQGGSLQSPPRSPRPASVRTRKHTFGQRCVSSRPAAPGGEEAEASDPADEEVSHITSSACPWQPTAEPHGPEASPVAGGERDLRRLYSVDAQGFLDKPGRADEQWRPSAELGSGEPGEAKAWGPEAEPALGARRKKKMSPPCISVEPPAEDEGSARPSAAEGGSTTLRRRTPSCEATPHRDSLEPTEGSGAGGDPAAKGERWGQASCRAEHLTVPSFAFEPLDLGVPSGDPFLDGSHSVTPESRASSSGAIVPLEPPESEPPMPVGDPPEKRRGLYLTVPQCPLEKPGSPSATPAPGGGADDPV

binding: binds
Substance: mCherry tagged USP5 (ubiquitin specific peptidase 5), wild type (from UniProt P45974-1 1-858) (enzyme)

— paper PMC6712834, “SUMOylation regulates USP5-Cav3.2 calcium channel interactions” (Molecular Brain, 2019)
